# Library compounds against nucleic acid targets

Calls as published in the ROBIN set (doi:10.1002/anie.202211358).

Targets, with sequences 5′ to 3′:
PreQ1: PreQ1 riboswitch RNA pseudoknot, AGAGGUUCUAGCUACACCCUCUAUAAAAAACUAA. From B. subtilis. Hit rate about 0.7% of about 24,000 compounds.
TPP: TPP riboswitch RNA three-way junction, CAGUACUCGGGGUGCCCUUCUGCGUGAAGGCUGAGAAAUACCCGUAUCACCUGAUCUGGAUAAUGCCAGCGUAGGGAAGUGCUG. Hit rate about 0.7% of about 24,000 compounds.
SAM-II: SAM-II riboswitch RNA pseudoknot, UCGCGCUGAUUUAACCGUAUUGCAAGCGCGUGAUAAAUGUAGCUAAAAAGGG. Hit rate about 1% of about 21,000 compounds.

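The test is a small-molecule microarray: each compound is printed twice on a reactive slide, and binding shows as fluorescence of the labelled oligonucleotide after washing. The data file lists only calls. An earlier report of the laboratory on the PreQ1, TPP and SAM-II riboswitches (doi:10.1038/s41467-019-09493-3) used 1 µM RNA for 2 h and required a mean Z-score above 3 (spot signal-to-noise against the whole library), a score well above that on a control array, and duplicate spots agreeing (coefficient of variation under 100); it then also set aside compounds that hit other targets, which this list keeps. The cut-offs behind this list may differ. The calls come from the array alone, and fixing a compound to the slide can hide its binding.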
Key: hit = hit, no hit = tested without a hit.
The compounds are a random part of those screened.
A target missing from an entry has no call listed here.

- CCCCC(=O)C1=C(NCCc2c(C)[nH]c3ccc(C)cc23)CC(C)(C)CC1=O | PreQ1: no hit; TPP: no hit; SAM-II: no hit
- Cc1ccc(OCCc2nnc(NC(=O)C3C=CCN3)s2)cc1 (stereo not shown) | PreQ1: no hit; TPP: no hit; SAM-II: no hit
- C=CCOc1ccc(C2C(C#N)=C(N)Oc3c2ccc2ccccc32)cc1OC (stereo not shown) | PreQ1: no hit; TPP: no hit; SAM-II: no hit
- Cc1ccccc1OCC(O)Cn1c(=N)n(CCN2CCOCC2)c2ccccc21 (stereo not shown) | PreQ1: no hit; TPP: no hit; SAM-II: no hit
- CC1(C)Cc2c(C#N)c(NC3CCCCC3)nc(Cc3ccccc3)c2CO1 | PreQ1: no hit; TPP: no hit; SAM-II: no hit
- CCOC(=O)c1ccc2nc(C(F)(F)F)nc(NCc3ccc(Cl)cc3)c2c1 | PreQ1: no hit; TPP: no hit; SAM-II: no hit
- CC(C)CN(C[C@@H](O)[C@H](Cc1ccccc1)NC(=O)O[C@H]1CCOC1)S(=O)(=O)c1ccc(N)cc1 | PreQ1: no hit; TPP: no hit; SAM-II: no hit
- CCOC(=O)c1cc(Nc2ccc(C)cc2)c2ccccc2n1 | PreQ1: no hit; TPP: no hit; SAM-II: no hit
- CC(Nc1cc(-c2ccccc2F)nc2ccnn12)c1nnc(N)s1 (stereo not shown) | PreQ1: no hit; TPP: no hit; SAM-II: no hit
- C=CCN1CC(c2nc3ccccc3n2CC(O)COc2ccccc2C)CC1=O (stereo not shown) | PreQ1: no hit; TPP: no hit
- COc1c(CC(C)N)cc2c(c1OC)OCO2 (stereo not shown) | PreQ1: no hit; TPP: no hit; SAM-II: no hit
- CC(NC1=C(C(N)=O)S(=O)(=O)c2ccccc21)c1ccccc1 (stereo not shown) | PreQ1: no hit; TPP: no hit
- O=C(O)c1ccc(-c2cc(NCCO)nc3[nH]ccc23)o1 | PreQ1: no hit; TPP: no hit; SAM-II: no hit
- CNC(=O)[C@@H]1C[C@@H](N)CN1C(=O)c1ccc(CSc2ccccn2)cc1 | PreQ1: no hit; TPP: no hit; SAM-II: no hit
- c1ccc(C(NCc2cccs2)c2ccccc2)cc1 | PreQ1: no hit; TPP: no hit; SAM-II: no hit
- COc1ccc(-c2cnc3ncnn3c2N)cc1OC | PreQ1: no hit; TPP: no hit; SAM-II: no hit
- CCCC(=O)Nc1cc(C(=O)NCC(O)Cc2ccccc2)ccc1C (stereo not shown) | PreQ1: no hit; TPP: no hit; SAM-II: no hit
- COC1C(OC(=O)c2ccc(C)[nH]2)C(O)C(Oc2ccc3c(O)c(NC(=O)c4ccc(O)c(CC=C(C)C)c4)c(=O)oc3c2Cl)OC1(C)C (stereo not shown) | PreQ1: no hit; TPP: no hit; SAM-II: no hit
- Nc1c(C(=O)NCCc2c[nH]c3ccccc23)sc2nc3c(cc12)CCC3 | PreQ1: no hit; TPP: no hit; SAM-II: no hit
- CN(CCO)C[C@@H]1CN(c2nc(-c3ccccc3)nc3ccccc23)C[C@@H]1CO | PreQ1: no hit; TPP: no hit; SAM-II: no hit
- CN(Cc1nc(-c2ccccc2)no1)C(=O)c1ccc(N(C)CCO)cc1 | PreQ1: no hit; TPP: no hit; SAM-II: no hit
- O=C1C2C3C=CC(C2C(=O)N1c1ccc(CCO)cc1)C1C(=O)N(c2ccc(CCO)cc2)C(=O)C31 (stereo not shown) | PreQ1: no hit; TPP: no hit; SAM-II: no hit
- Cc1ccccc1-n1c(Cn2ncc3c(N)ncnc32)nc2cccc(C)c2c1=O | PreQ1: no hit; TPP: no hit; SAM-II: no hit
- COc1ccc(C2C(C#N)=C(N)OC3=C2S(=O)(=O)N(C)c2ccccc23)cc1 (stereo not shown) | PreQ1: no hit; TPP: no hit
- Cc1nc(C2=C(N)N(Cc3ccccc3)CC2=O)sc1C | PreQ1: no hit; TPP: no hit
- O=S(=O)(NC1CCCCC1Nc1ccc(Br)cc1)c1ccccc1 (stereo not shown) | PreQ1: no hit; TPP: no hit
- CC(C)=CCN1CCC2(CCN(Cc3cnc(C)n3C)CC2)C(CO)C1 (stereo not shown) | PreQ1: no hit; TPP: no hit; SAM-II: no hit
- Cc1nc(-c2cc3cccc(C)c3nc2NCCc2ccccn2)no1 | PreQ1: no hit; TPP: no hit
- CCCOc1ccc(Oc2nc(NCC)nc(N(C)C)n2)nn1 | PreQ1: no hit; TPP: no hit; SAM-II: no hit
- CC(C)c1ccc(C2C(C#N)=C(N)Oc3cc(O)ccc32)cc1 (stereo not shown) | PreQ1: no hit; TPP: no hit; SAM-II: no hit

Repeated from the top, 4 entries:

* CCCCC(=O)C1=C(NCCc2c(C)[nH]c3ccc(C)cc23)CC(C)(C)CC1=O : PreQ1: no hit; TPP: no hit; SAM-II: no hit
* Cc1ccc(OCCc2nnc(NC(=O)C3C=CCN3)s2)cc1 (stereo not shown) : PreQ1: no hit; TPP: no hit; SAM-II: no hit
* C=CCOc1ccc(C2C(C#N)=C(N)Oc3c2ccc2ccccc32)cc1OC (stereo not shown) : PreQ1: no hit; TPP: no hit; SAM-II: no hit
* Cc1ccccc1OCC(O)Cn1c(=N)n(CCN2CCOCC2)c2ccccc21 (stereo not shown) : PreQ1: no hit; TPP: no hit; SAM-II: no hit